{"source": "patent US20230167120A1", "about": "“ARYL-FUSED ISOSELENAZOLE COMPOUND CONTAINING TETRAZINE SUBSTITUENT, SYNTHESIS METHOD THEREFOR, AND USE THEREOF” (KEAISE MEDICINE WUHAN CORP., priority 2020, published 2023)", "system": "human glioma cell U87", "assay": "Pharmacodynamic study in human glioma cell U87 subcutaneous model", "type": "in vivo, Balb/c nude mice", "details": "Day 7, compounds 20 mg/Kg, q.d.×14 days", "source_text": "The route of administration was intragastric administration ([…]., q.d.×14 days).", "note": "Some of these results come from one statement about several compounds together.", "data": [{"smiles": "Cn1nnc2c(C(=O)NCCn3[se]c4cc(F)ccc4c3=O)ncn2c1=O", "note": "[Compound 3, 3,4-dihydro-3-methyl-4-oxo-N-(3(2H)-oxo-6-fluoro-1,2-benzisoselenazol-2-yl)-ethyl-imidazo[5,1-d]-1,2,3,5-tetrazine-8-carboxamide]", "values": [{"measurement": "Tumor inhibition rate", "setting": "listed as compound 3", "result": "≥ 80", "unit": "%"}]}, {"smiles": "Cc1ccc2[se]n(CCNC(=O)c3ncn4c(=O)n(C)nnc34)c(=O)c2c1", "note": "[Compound 6, 3,4-dihydro-3-methyl-4-oxo-N-(3(2H)-oxo-5-methyl-1,2-benzisoselenazol-2-yl)-ethyl-imidazo[5,1-d]-1,2,3,5-tetrazine-8-carboxamide]", "values": [{"measurement": "Tumor inhibition rate", "setting": "listed as compound 6", "result": "≥ 80", "unit": "%"}]}, {"smiles": "Cc1ccc2c(=O)n(CCNC(=O)c3ncn4c(=O)n(C)nnc34)[se]c2c1", "note": "[Compound 8, 3,4-dihydro-3-methyl-4-oxo-N-(3(2H)-oxo-6-methyl-1,2-benzisoselenazol-2-yl)-ethyl-imidazo[5,1-d]-1,2,3,5-tetrazine-8-carboxamide]", "values": [{"measurement": "Tumor inhibition rate", "setting": "listed as compound 8", "result": "≥ 80", "unit": "%"}]}]}
